In PMC7819943, “Rice protein-binding microarrays: a tool to detect cis-acting elements near promoter regions in rice”:
This is one part of the list.

Target: T1, OsSMF1 (Oryza sativa, UniProt Q6ZLB0 1-436)
T1 sequence: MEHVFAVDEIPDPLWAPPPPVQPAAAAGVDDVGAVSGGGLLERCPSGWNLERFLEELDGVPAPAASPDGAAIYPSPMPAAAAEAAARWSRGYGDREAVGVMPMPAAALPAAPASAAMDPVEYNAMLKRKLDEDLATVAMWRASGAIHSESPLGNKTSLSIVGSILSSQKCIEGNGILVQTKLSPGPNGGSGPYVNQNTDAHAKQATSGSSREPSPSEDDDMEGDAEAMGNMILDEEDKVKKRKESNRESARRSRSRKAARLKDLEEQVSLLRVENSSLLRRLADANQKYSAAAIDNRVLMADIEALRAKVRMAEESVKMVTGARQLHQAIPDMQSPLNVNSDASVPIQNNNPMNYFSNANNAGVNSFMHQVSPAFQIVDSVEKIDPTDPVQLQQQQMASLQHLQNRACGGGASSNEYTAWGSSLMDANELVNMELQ
Assay: protein-binding microarray (RPBM); PBS, 2% BSA, 51.3 ng/ul salmon testes DNA, 50 uM zinc acetate, 200 nM TF, 25 C, 1 h; high values mean tight binding
Details: protein: recombinant; tags: N-terminal polyhistidine and DsRed monomer fusion (pET32a); chain copies: 2; label: CyDye5-dUTP incorporated in the synthesized complementary strand; 3' TTTTT single-stranded linker to array surface; dsDNA, one strand shown
In short: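 Binding signal here means per-feature fluorescence intensity in arbitrary units. The values were read on an Axon 4000B scanner after a custom Agilent array, double-stranded by primer extension with Cy5-dUTP, was incubated with 200 nM protein at 25 °C for 1 h in PBS with 2% BSA, salmon testes DNA and 50 µM zinc acetate, then washed. The proteins were transcription factors with an N-terminal polyhistidine tag and DsRed, expressed in E. coli BL21-CodonPlus and purified on Ni–NTA.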

Compared with “CTCCAGATCATTTTGTGGGATTCATAGGTTTGGACCCTCACGGAGTCACCTAGTGCAG”, “AGGGATAGATTGGCTTAGGGGCGGGTGGGTCTAGAGATTTCGGAGTCACCTAGTGCAG” is higher in binding signal: 3160 fluorescence intensity (a.u.) for the first, 3740 fluorescence intensity (a.u.) for the second.

Compared with “GTCTTTCTGGTCAGAATTGGCTGGAAACAATTGTTGTTAGCGGAGTCACCTAGTGCAG”, “TTTCGTGAGTCACCGCCGACCTCACCCGCGATTTGCCGCCCGGAGTCACCTAGTGCAG” is higher in binding signal: 3270 fluorescence intensity (a.u.) for the first, 9380 fluorescence intensity (a.u.) for the second.

First: AATTAAGATGCACAGATAAAATTAACCGTAATTTTATACCCGGAGTCACCTAGTGCAG
Second: GGGTGCACACTGCACACGTGGAAACTGCACATAGAAGAATCGGAGTCACCTAGTGCAG
The binding signal of the first is higher: 24300 fluorescence intensity (a.u.) for the first, 3620 fluorescence intensity (a.u.) for the second.

First: GTCGGTACACCACGACAGTGCACGAATGGTGGGAAGCGACCGGAGTCACCTAGTGCAG
Second: CGAGGCAGTGCTCCCTTCCCCTTCCTCCCTCCCCACTCCCCGGAGTCACCTAGTGCAG
The binding signal of the first is lower: 27900 fluorescence intensity (a.u.) for the first, 28600 fluorescence intensity (a.u.) for the second.

Going from “TACTCCTCTTTCCACTTGGCACTTGGCAGGTGACCTGGCGCGGAGTCACCTAGTGCAG” to “ATGCCATGCCAACGCACTATGCCTGGTATCCTTAGCCATCCGGAGTCACCTAGTGCAG”, the binding signal falls from 8250 fluorescence intensity (a.u.) to 4060 fluorescence intensity (a.u.).

First: GGTTAAATGTCTCGGTGTCATCTAACCCTATGGGAGTATTCGGAGTCACCTAGTGCAG
Second: TAGATGGATCATGGAGTGACGTGGATTATTTCATCCAGCTCGGAGTCACCTAGTGCAG
The binding signal of the first is lower: 3920 fluorescence intensity (a.u.) for the first, 16300 fluorescence intensity (a.u.) for the second.

Compared with “ATAGTGATAGTACTAATGATTTTGCCACGCGTCGACCGCGCGGAGTCACCTAGTGCAG”, “AATATAGTTGGGTTTTCACCAGACTCTGTTTTGGATATAGCGGAGTCACCTAGTGCAG” is higher in binding signal: 8290 fluorescence intensity (a.u.) for the first, 22600 fluorescence intensity (a.u.) for the second.

Compared with “TGAGATGGAACACGTCAGTCGATGGATCAGACAGCGACGTCGGAGTCACCTAGTGCAG”, “TACAATTACAAATTCTTGAAATCTAAATGAAAATCTAGACCGGAGTCACCTAGTGCAG” is lower in binding signal: 4480 fluorescence intensity (a.u.) for the first, 3400 fluorescence intensity (a.u.) for the second.

First: TGAGGTTGGTGTTGACGCTGTTGTCGACGAAGCTGGATGTCGGAGTCACCTAGTGCAG
Second: AATTGCCACGTAAGCGCCATGTCAGTGCCACGTCAAATTACGGAGTCACCTAGTGCAG
The binding signal of the first is lower: 3620 fluorescence intensity (a.u.) for the first, 33800 fluorescence intensity (a.u.) for the second.

Going from “ATCAACCACCACGGTGTCATCCTCCTCCTCCATGGTGTGTCGGAGTCACCTAGTGCAG” to “AAACCAAAAGGCCAGCGAAGCCAACGCGTCACCTCCTCTCCGGAGTCACCTAGTGCAG”, the binding signal rises from 4490 fluorescence intensity (a.u.) to 7270 fluorescence intensity (a.u.).

First: GTGACACGTCCCAACGGTAGCCACCTCGATCTGTGCCGCCCGGAGTCACCTAGTGCAG
Second: CAACACCGCGCGCCACGACGCCCACTGCACCGGGTCAGCCCGGAGTCACCTAGTGCAG
The binding signal of the first is higher: 5630 fluorescence intensity (a.u.) for the first, 4050 fluorescence intensity (a.u.) for the second.

First: CCTCCTCCGAGGCTACTCTCTGCAGGGCGCTCGCTTACGTCGGAGTCACCTAGTGCAG
Second: TCAGGGAGTACTCGCTGCCGCGTGTCCCGGAGGGCCACTTCGGAGTCACCTAGTGCAG
The binding signal of the first is higher: 17000 fluorescence intensity (a.u.) for the first, 4820 fluorescence intensity (a.u.) for the second.

Going from “GGAAACAGTGTTGGGTACCGTACGTGCACGGCTACCAACACGGAGTCACCTAGTGCAG” to “GCCGTTGTCGTCGCTGTCGTCGGAATAGCCTCCTTGGTGCCGGAGTCACCTAGTGCAG”, the binding signal falls from 3510 fluorescence intensity (a.u.) to 3500 fluorescence intensity (a.u.).

First: TTCTAGGTGAGTTATGAAATTAGTTCTTTCATTCGTGTCTCGGAGTCACCTAGTGCAG
Second: ATAAAATTGCCACATAAGCACCACGTCAATGCTATGTGGGCGGAGTCACCTAGTGCAG
The binding signal of the first is lower: 3730 fluorescence intensity (a.u.) for the first, 29700 fluorescence intensity (a.u.) for the second.

Going from “GTTTCGCAGGTGCACCGGACGTGTCCCGTGTATTTCCTGGCGGAGTCACCTAGTGCAG” to “TTTCAATATTTTAATTTATTGTTCAACTTCTAATAGATGTCGGAGTCACCTAGTGCAG”, the binding signal rises from 4170 fluorescence intensity (a.u.) to 32800 fluorescence intensity (a.u.).

Going from “CAAGTACCAGCGGCGCAAGTGCAACGCGGACTGCCCGCTCCGGAGTCACCTAGTGCAG” to “AAAGAGATTATGCGGATATGCCCTTGCAAACCGGGGCAGTCGGAGTCACCTAGTGCAG”, the binding signal rises from 3870 fluorescence intensity (a.u.) to 49900 fluorescence intensity (a.u.).

Going from “GGGCCTAATATCAAATAATTAGAAGGGGTAAAGCTTCGAACGGAGTCACCTAGTGCAG” to “CGAACGCGAGGCGCCTCCGATGTACACGTGGCGCCTCCTCCGGAGTCACCTAGTGCAG”, the binding signal rises from 20800 fluorescence intensity (a.u.) to 25900 fluorescence intensity (a.u.).

Compared with “TCCATTGTCCTCTCTGACTCTACTCCTCCCTCTCTCTGTCCGGAGTCACCTAGTGCAG”, “AATCTTCCATTCGTGGCGGAATGCCACGTGAGTAGCTGCGCGGAGTCACCTAGTGCAG” is higher in binding signal: 3720 fluorescence intensity (a.u.) for the first, 8760 fluorescence intensity (a.u.) for the second.

Compared with “CGGTGCCAAGTCAAAGCCTAGCCAAGCCACGCGAGACGAGCGGAGTCACCTAGTGCAG”, “TTCATTCCCAAATGCCACCCGGGCCCACATGTCAGCCTCACGGAGTCACCTAGTGCAG” is higher in binding signal: 3900 fluorescence intensity (a.u.) for the first, 4670 fluorescence intensity (a.u.) for the second.

First: TCGACCAGATCAATGAGTCATGTCAACAAATATTGCTGTACGGAGTCACCTAGTGCAG
Second: CTGTTTCGCTGACGTGACGCCTACGTGGCATCCCAGTCATCGGAGTCACCTAGTGCAG
The binding signal of the first is lower: 4320 fluorescence intensity (a.u.) for the first, 40300 fluorescence intensity (a.u.) for the second.

First: TACAACACCATATATAATACCCGATGTGACACACCAAAACCGGAGTCACCTAGTGCAG
Second: CCCTCGCCATTTCATTGGCCGTTTCGTGGCCATCCATCACCGGAGTCACCTAGTGCAG
The binding signal of the first is higher: 3580 fluorescence intensity (a.u.) for the first, 3230 fluorescence intensity (a.u.) for the second.
